## Library screen at single concentrations

Protein sequences, listed by entry. Tags and fused reporters are not part of them. Residues count along the entry.
UniProt P9WFT3, whole entry: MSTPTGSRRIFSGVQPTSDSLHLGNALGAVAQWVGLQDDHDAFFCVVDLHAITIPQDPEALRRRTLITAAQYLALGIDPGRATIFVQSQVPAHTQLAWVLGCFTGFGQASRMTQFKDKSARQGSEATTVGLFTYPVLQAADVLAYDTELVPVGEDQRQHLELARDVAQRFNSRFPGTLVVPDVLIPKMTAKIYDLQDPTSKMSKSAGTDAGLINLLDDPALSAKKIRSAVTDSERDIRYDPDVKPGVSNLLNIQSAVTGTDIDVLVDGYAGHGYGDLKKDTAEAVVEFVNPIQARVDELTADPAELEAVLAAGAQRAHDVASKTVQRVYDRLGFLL
UniProt P9WNZ1, whole entry: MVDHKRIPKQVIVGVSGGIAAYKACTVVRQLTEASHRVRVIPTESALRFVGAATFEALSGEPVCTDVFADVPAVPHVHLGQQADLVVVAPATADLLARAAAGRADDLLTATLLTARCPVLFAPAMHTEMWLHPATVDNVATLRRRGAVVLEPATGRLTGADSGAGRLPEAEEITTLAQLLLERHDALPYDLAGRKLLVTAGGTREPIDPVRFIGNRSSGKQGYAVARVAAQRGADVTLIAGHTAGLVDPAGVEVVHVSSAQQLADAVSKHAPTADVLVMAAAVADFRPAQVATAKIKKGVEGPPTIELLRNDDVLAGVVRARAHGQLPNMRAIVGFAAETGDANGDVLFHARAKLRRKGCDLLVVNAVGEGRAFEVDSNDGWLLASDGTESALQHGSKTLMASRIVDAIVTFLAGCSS
UniProt A4I591, 1-473: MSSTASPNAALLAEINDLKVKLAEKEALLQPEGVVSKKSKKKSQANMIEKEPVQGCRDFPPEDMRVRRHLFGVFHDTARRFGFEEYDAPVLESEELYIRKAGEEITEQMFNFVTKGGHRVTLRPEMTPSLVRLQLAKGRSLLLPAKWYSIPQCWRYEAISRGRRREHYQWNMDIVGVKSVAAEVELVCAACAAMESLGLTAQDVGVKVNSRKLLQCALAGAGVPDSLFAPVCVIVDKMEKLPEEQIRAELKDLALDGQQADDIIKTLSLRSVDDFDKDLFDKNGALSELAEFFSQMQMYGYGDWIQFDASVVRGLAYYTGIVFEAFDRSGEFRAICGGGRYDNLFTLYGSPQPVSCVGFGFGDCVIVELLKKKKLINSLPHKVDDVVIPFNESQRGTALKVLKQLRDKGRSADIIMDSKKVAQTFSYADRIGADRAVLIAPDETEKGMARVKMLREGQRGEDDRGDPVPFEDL
UniProt I6X8D2, whole entry: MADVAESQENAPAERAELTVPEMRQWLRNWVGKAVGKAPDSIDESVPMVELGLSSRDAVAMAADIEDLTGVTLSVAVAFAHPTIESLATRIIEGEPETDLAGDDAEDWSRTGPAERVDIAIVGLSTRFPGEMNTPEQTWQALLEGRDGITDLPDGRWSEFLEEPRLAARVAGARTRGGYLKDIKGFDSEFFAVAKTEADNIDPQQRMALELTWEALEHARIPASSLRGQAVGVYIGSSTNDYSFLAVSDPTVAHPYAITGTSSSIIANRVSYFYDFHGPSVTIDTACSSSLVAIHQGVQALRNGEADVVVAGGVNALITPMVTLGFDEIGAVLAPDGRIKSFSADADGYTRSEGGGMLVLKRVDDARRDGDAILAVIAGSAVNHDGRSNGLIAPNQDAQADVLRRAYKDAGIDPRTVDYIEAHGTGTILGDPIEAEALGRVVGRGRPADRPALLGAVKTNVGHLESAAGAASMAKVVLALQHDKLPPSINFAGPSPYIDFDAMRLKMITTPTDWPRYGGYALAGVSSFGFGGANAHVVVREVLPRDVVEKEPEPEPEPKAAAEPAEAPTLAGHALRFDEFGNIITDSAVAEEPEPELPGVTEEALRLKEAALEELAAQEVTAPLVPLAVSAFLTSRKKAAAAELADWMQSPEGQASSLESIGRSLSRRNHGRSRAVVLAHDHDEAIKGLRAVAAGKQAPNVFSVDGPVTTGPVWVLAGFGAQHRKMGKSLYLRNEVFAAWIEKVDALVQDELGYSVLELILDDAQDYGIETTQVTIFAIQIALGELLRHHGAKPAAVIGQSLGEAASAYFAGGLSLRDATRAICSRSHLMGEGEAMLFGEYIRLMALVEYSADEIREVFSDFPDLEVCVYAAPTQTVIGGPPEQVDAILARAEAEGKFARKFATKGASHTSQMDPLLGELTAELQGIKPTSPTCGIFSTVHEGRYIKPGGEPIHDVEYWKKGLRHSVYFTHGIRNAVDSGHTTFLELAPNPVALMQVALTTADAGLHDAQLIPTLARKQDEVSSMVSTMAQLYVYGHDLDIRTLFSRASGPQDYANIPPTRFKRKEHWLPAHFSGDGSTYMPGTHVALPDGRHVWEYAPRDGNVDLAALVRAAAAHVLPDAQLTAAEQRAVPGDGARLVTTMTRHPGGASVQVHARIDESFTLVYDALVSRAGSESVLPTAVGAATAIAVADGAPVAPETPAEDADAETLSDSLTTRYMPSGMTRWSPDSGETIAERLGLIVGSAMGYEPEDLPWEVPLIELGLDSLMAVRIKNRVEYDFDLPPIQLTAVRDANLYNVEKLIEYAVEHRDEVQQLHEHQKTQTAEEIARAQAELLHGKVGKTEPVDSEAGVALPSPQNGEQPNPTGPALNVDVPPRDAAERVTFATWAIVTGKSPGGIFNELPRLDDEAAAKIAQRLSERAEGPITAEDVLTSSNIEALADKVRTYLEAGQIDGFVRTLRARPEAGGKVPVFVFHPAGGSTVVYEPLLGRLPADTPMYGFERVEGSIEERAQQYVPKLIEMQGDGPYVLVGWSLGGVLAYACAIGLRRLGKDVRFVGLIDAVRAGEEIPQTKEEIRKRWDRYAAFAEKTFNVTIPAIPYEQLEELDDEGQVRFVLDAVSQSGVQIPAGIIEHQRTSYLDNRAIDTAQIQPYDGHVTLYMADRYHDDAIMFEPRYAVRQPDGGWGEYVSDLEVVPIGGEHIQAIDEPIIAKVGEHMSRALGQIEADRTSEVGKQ

Data taken from ChEMBL document CHEMBL3988442, “University of Dundee, Small-Polar-MMV Screening Library” (2021).

MtTrpRS: 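Tryptophan-tRNA ligase, Mycobacterium tuberculosis (UniProt P9WFT3). Enzyme assay of tryptophanyl-tRNA synthetase; the read-out is not stated. Compounds at 10 µM. Higher most likely means stronger inhibition; the record gives no direction and few retests gave an IC50. About 65,000 compounds were tested under these conditions; 0.098% (about 64) showed 50% or more at least once.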
CoaBC: 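Enzyme assay of CoaBC with a phosphate dye (Biomol Green) read at 650 nm. Target: Coenzyme A biosynthesis protein CoaBC, Mycobacterium tuberculosis (UniProt P9WNZ1). Tested at 30 µM. Direction is inferred from only a few compounds that gave an IC50; most scored high, so higher reads as stronger inhibition. Most strong results did not repeat in a second test. Size under these conditions: about 67,000 compounds, about 40 of them at 50% or above in at least one test.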
LiHisRS: 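Histidine-tRNA ligase, Leishmania infantum (UniProt A4I591). Enzyme assay of histidyl-tRNA synthetase; the read-out is not stated. Tested at 30 µM. Direction is inferred from retests: higher values go with stronger inhibition. The assay is labelled LdHisRS but filed under L. infantum. Size under these conditions: about 69,000 compounds, about 410 of them at 50% or above in at least one test.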
Pks13 thioesterase: 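Polyketide synthase Pks13, Mycobacterium tuberculosis (UniProt I6X8D2). Enzyme assay of the thioesterase domain of polyketide synthase 13; the read-out is not stated. Compounds at 30 µM. Higher reads as stronger inhibition (inferred from which compounds were picked for retests). Of about 67,000 compounds tested this way, about 300 (0.46%) reached 50% or more in at least one test.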

Values are the deposited “Percent Effect”, in %. The controls that fix the scale are not given in the record; negative values are as filed. The compounds are a random part of those screened. A dash means the value is not listed here; it may have been measured.

For CC(=O)NCC(=O)N1CCC(c2cncc(Oc3cccnc3)n2)CC1 the result was CoaBC: 2.451%; LiHisRS: 13.54%; Pks13 thioesterase: -9.125%. Cc1ncc(CNCC(C)O)c2cc(C(=O)c3ccc(Br)cc3)oc12 (centres unmarked) read MtTrpRS: 1.961%; CoaBC: 1.937%; LiHisRS: 41.3%; Pks13 thioesterase: 53.81%. With CC(CNC(=O)N1CCS(=O)(=O)CC1)Cc1cccs1 (centres unmarked) the screen gave MtTrpRS: -0.4036%; CoaBC: 13.1%; LiHisRS: 18.18%; Pks13 thioesterase: -13.76%. COCCN1CCO[C@@H]2CN(C(=O)NCc3cccnc3)CC[C@@H]2C1 read MtTrpRS: -4.575%; CoaBC: -8.402%; LiHisRS: 18%; Pks13 thioesterase: -33.96%. For COc1cccc(Cn2ncnc2CCSC)c1 the result was MtTrpRS: 2.441%; CoaBC: -2.751%; LiHisRS: 11.48%; Pks13 thioesterase: -13.95%.

CNC(=O)NC(C)c1nc(-c2ccc(Br)cc2)no1 (centres unmarked) gave MtTrpRS: 7.327%; CoaBC: 5.804%; LiHisRS: -5.208%; Pks13 thioesterase: 2.262%. CC(C)N1CCOCC2(CN(Cc3nccs3)CCO2)C1 (centres unmarked) gave MtTrpRS: -1.213%; CoaBC: 4.689%; LiHisRS: 16.5%; Pks13 thioesterase: 5.327%. For CCC(=O)c1ccccc1NN1c2ccccc2C(=O)C1(C)OC (centres unmarked) the result was MtTrpRS: -2.847%; CoaBC: 0.8861%; LiHisRS: 15%; Pks13 thioesterase: -22.47%. Result for CS(=O)(=O)NC1CCN(C(=O)c2ccc(F)cc2)CC1 was MtTrpRS: 5.061%; CoaBC: 12.8%; LiHisRS: 28.12%; Pks13 thioesterase: -0.7806%. O=C1CCN(C(=O)C2(c3ccc(F)cc3)CCOCC2)CCN1 read MtTrpRS: 1.982%; CoaBC: -1.242%; LiHisRS: 14.29%; Pks13 thioesterase: -14.84%.

O=C(c1cccnc1N1CCCCC1)N1CCCC(n2cccn2)C1 (centres unmarked) gave MtTrpRS: 21.98%; CoaBC: 4.824%; LiHisRS: 14.91%; Pks13 thioesterase: -33.97%. With Cc1ccc(C(=O)NCc2cccnc2N(C)C)o1 the screen gave MtTrpRS: -7.072%; CoaBC: 7.673%; LiHisRS: 16.51%; Pks13 thioesterase: -4.686%. For CCc1noc(CN(Cc2cccs2)C2CC2)n1 the result was MtTrpRS: 0.06456%; CoaBC: 2.792%; LiHisRS: 10.59%; Pks13 thioesterase: -14.08%. CN(CCC#N)C(=O)CN1CCC(c2cc3ccccc3[nH]2)CC1 gave MtTrpRS: 8.058%; CoaBC: 2.233%; LiHisRS: -1.667%; Pks13 thioesterase: 28.7%. O=C(Nc1ccccc1)N1CCn2c(nnc2C2CCNCC2)C1 gave MtTrpRS: -5.618%; CoaBC: 0.5263%; LiHisRS: 1.379%; Pks13 thioesterase: -7.439%.

With CC(C)n1cnnc1CN(C)Cc1ccc(CN(C)S(C)(=O)=O)o1 the screen gave MtTrpRS: -2.006%; CoaBC: -4.703%; LiHisRS: 10%; Pks13 thioesterase: -0.572%. For COc1ccnc(N2CCN(C(=O)c3csc(C4CC4)n3)CC2)n1 the result was MtTrpRS: -1.844%; CoaBC: 11.01%; LiHisRS: 13.21%; Pks13 thioesterase: -11.07%. For O=C(NCCCn1cccn1)C1COCC(=O)N1Cc1ccccc1 (centres unmarked) the result was MtTrpRS: 3.038%; CoaBC: 4.3%; LiHisRS: 12.4%; Pks13 thioesterase: -8.096%. For COCc1ccc(CN[C@H]2C[C@@H](Cc3cc(CCO)on3)C2(C)C)o1 the result was MtTrpRS: -4.173%; CoaBC: 8.168%; LiHisRS: 14.86%; Pks13 thioesterase: -30.64%. Result for Cc1csc(CNC(=O)N(C)Cc2ccc3c(c2)OCO3)n1 was MtTrpRS: -3.011%; CoaBC: 6.263%; LiHisRS: 4.959%; Pks13 thioesterase: -20.06%.

CCOCC1CN(CC2CC2)Cc2nn(CC3CC3)cc21 (centres unmarked) read MtTrpRS: 2.213%; CoaBC: -2.757%; LiHisRS: 20.51%; Pks13 thioesterase: 7.26%. Result for COCCN1C(=O)CC[C@@H]2[C@H]1CCN2Cc1cccc(C#N)c1 was MtTrpRS: -2.346%; CoaBC: 5%; LiHisRS: 8%; Pks13 thioesterase: -1.742%. CCCN(CCC)c1ncc(S(=O)(=O)c2ccc(OC)cc2)c(N)n1 gave MtTrpRS: -6.159%; CoaBC: -3.302%; LiHisRS: 16.48%; Pks13 thioesterase: 7.595%. Result for NC(=O)C1CCN(CCCc2ccc(C(F)(F)F)cc2)CC1 was MtTrpRS: 7.087%; CoaBC: 7.018%; LiHisRS: 10%; Pks13 thioesterase: 10.47%. With COc1ccc(-c2n[nH]cc2CN(C)CCc2scnc2C)c(F)c1 the screen gave MtTrpRS: 1.183%; CoaBC: -0.4016%; LiHisRS: 16.42%; Pks13 thioesterase: -23.2%.

Cc1cc(C(=O)Nc2ccc(OCC3CCOCC3)cc2)[nH]n1 read MtTrpRS: 7.209%; CoaBC: 14.1%; LiHisRS: 11.97%; Pks13 thioesterase: -5.873%. Cn1c(C(=O)N(CC(N)=O)C2CCCC2)cc(Cl)c1Cl read MtTrpRS: -0.9288%; CoaBC: 4.911%; LiHisRS: 7.292%; Pks13 thioesterase: -23.59%. COc1ccc2c3c1CN(S(C)(=O)=O)CC3=CC(C)(C)CO2 gave CoaBC: 3.39%; LiHisRS: 12.24%; Pks13 thioesterase: 14.69%. For c1ccc(CN2CCOC3(CCN(c4ncccn4)CC3)C2)nc1 the result was MtTrpRS: -3.735%; CoaBC: 0.6342%; LiHisRS: 10.53%; Pks13 thioesterase: -31.97%. With Cc1nn(C)c(N(C)C)c1CNC1CCOc2c(Cl)cccc21 (centres unmarked) the screen gave MtTrpRS: 5.085%; CoaBC: -0.1267%; LiHisRS: 8.929%; Pks13 thioesterase: -10.63%.

With CCN(CC)S(=O)(=O)N1CCCC1CC(=O)c1cccs1 (centres unmarked) the screen gave MtTrpRS: -1.644%; CoaBC: -3.912%; LiHisRS: 1.613%; Pks13 thioesterase: -64.61%. For CN1CCN(C)C2(CCN(Cc3ccc(C4CCCO4)s3)CC2)C1 (centres unmarked) the result was MtTrpRS: -1.503%; CoaBC: -7.438%; LiHisRS: 14.67%; Pks13 thioesterase: -34.69%. For Cc1nc(C2CCCC2)sc1C(N)=O the result was MtTrpRS: 12.49%; CoaBC: 4.716%; LiHisRS: 14.52%; Pks13 thioesterase: -11.92%.

The first 3 entries again:

structure,MtTrpRS,CoaBC,LiHisRS,Pks13 thioesterase
CC(=O)NCC(=O)N1CCC(c2cncc(Oc3cccnc3)n2)CC1,-,2.451,13.54,-9.125
Cc1ncc(CNCC(C)O)c2cc(C(=O)c3ccc(Br)cc3)oc12 (centres unmarked),1.961,1.937,41.3,53.81
CC(CNC(=O)N1CCS(=O)(=O)CC1)Cc1cccs1 (centres unmarked),-0.4036,13.1,18.18,-13.76